The text below walks through data of patent publication US6727278B1, “Pharmaceutically active agents that impede amyloid formation in vivo” (DMS Pharmaceutical Inc., priority 1986, dated 2004).

The conditions of data set [1]: cited from earlier work.
The next data set deals with plasma proteins. Particulars: cited from earlier work.
Another data set deals with human DMS. Put plainly: In vivo assay: amyloid formation induced by intracerebral injection of human DMS with the compound, Congo Red histology. Particulars: for Mean Lesion Area Composed of CBADs: percentage of lesion area, ** = significant decrease from untreated controls. The arrangement: species or system Male Wistar rats.

As to `COC(=O)C1=C(C)NC(C)=C(C(=O)OC)C1c1ccccc1[N+](=O)[O-]` [Procardia, Nifedipine], the “absorption by sublingual administration” value in data set [1] is “rapidly and completely absorbed”. Further, the “bound to plasma proteins” value in the data set on plasma proteins is given as 98%. Moreover, the “Mean Number of CBADs Per Animal” value amounted to 4 in the data set on human DMS (10^−2M) and 88 in the data set on human DMS (10^−5 − 10^−6M, CBADs = Congophilic Birefringent Amyloid Deposits). Besides, the results for the “Mean Lesion Area Composed of CBADs” value with human DMS (10^−2M) and in the data set with human DMS (10^−5 − 10^−6M) were 0.2** and 7.6, respectively.
